For 2 substances, binding results are on record in paper PMC9883169.

The chains behind the UniProt entries cited, without tags or fusion partners.
UniProt P61244: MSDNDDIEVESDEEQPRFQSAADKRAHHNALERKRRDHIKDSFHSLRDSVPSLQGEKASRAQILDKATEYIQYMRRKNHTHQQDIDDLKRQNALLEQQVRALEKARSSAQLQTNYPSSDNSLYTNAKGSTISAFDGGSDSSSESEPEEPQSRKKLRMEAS

Assay [1] addresses T1, USP1 (endogenous, RL-4RH cells) (human (endogenous in RL-4RH)) (UniProt O94782).
T1 sequence: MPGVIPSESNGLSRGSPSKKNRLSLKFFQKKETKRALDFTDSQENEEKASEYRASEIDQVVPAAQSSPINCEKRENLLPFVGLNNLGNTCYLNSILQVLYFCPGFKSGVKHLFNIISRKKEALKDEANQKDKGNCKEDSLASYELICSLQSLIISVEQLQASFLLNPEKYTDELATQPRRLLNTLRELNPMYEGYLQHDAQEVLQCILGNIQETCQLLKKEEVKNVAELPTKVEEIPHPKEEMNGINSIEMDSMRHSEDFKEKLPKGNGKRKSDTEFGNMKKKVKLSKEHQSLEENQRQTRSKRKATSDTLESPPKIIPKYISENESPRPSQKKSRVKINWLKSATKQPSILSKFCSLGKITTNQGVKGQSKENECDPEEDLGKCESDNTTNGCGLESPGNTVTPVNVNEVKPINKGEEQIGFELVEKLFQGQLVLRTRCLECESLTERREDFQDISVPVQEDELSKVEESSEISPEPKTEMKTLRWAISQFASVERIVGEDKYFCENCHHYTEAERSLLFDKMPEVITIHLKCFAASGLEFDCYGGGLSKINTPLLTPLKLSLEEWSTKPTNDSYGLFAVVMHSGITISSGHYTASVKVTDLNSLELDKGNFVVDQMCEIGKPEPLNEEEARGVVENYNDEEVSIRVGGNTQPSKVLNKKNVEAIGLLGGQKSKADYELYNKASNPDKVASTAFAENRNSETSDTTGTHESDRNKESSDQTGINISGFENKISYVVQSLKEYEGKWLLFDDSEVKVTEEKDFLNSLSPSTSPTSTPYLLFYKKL
Description: co-IP; endogenous proteins in RL-4RH cells; IP with anti-USP1 (MAX blotted), anti-MAX or anti-MYC antibody (USP1 blotted); control IP with IgG.

The target of the next assay is T2, Flag-USP1 (UniProt O94782).
T2 sequence: T1 sequence
Nature of the assay: co-IP; 293T cells transfected with Flag-USP1 and HA-MAX; USP1 immunoprecipitated with anti-Flag antibody, HA-MAX examined by western blotting; control IP with IgG. In general terms: In western blotting, separated proteins are transferred to a membrane and probed.

For assay [2], the target named is T3, USP1 (in 293T cells, precipitated with USP1 antibody) (UniProt O94782).
T3 sequence: T1 sequence
Description: co-IP; MAX WT and MAX truncates (HA-tagged) overexpressed in 293T cells; co-IP performed with USP1 antibody, western blotting.

Results are given in words; binding and its absence hold for the method and conditions named. Binding seen in cells or lysates may run through a third protein. Some binding calls cover weakened binding; strength is not graded here. For part of these data: Where a sequence is shown, tags or fusion partners need not be part of it.

For the substance “MAX (endogenous, RL-4RH cells) (from UniProt P61244 1-160)”, the binding result in assay [1] was “binds”.
For HA-MAX (from UniProt P61244 1-160), the binding result (with Flag-USP1; in assay [2]) was “binds” throughout.
